# Results reported in patent US11912716B2 (priority 2018, dated 2024).
# Tested on: morphine-dependent animals
# Test: naloxone-precipitated morphine-withdrawal jumping (Example 10)
# Type: in vivo, Kunming mice
# Details: methadone 20 mg/kg intragastric, 1 hour before naloxone
compound,measurement,value
"CCC(=O)C(CC(C)N(C)C)(c1ccccc1)c1ccccc1 (stereo not shown) [methadone, reference compound]",% Inhibition of morphine-withdrawal jumping,46.1 ± 5.2%
